In paper PMC10758102:
These are yes or no findings as the source states them, for the method shown. In cells and extracts the contact can be indirect. Some results given as binding are weak or reduced against the parent protein; the word gives no strength.

Amino acid sequences for entries named in this document (tags omitted). Residues count along the entry.
UniProt O14786, residues 22-923: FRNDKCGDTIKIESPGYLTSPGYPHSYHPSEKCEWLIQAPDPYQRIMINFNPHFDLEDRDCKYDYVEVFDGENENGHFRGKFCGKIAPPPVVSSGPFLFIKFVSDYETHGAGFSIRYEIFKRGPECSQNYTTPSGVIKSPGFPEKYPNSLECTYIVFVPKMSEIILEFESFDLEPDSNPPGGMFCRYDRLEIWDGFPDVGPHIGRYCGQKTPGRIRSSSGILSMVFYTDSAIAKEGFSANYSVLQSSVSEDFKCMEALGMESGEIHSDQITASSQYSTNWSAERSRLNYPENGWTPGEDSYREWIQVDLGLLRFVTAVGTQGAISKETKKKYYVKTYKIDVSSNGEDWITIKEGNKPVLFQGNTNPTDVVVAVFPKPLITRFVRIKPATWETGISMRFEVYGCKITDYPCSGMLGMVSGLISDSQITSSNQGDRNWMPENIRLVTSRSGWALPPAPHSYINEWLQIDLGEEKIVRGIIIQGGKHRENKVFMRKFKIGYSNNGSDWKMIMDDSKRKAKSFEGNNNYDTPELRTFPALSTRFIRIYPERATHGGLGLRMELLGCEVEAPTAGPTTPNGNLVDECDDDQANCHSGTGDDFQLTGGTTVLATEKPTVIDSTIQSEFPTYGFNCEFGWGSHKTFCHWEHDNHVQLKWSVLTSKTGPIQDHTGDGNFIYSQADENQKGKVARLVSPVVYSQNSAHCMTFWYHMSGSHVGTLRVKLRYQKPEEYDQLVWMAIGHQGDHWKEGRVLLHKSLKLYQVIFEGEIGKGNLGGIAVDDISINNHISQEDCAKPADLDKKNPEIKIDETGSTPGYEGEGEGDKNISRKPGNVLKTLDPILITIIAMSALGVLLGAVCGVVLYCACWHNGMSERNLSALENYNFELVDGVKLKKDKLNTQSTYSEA

B1: GTPase-activating protein and VPS9 domain-containing protein 1 (GAPVD1) (protein, UniProt Q14C86 1-1478)
chain: MVKLDIHTLAHHLKQERLYVNSEKQLIQRLNADVLKTAEKLYRTAWIAKQQRINLDRLIITSAEASPAECCQHAKILEDTQFVDGYKQLGFQETAYGEFLSRLRENPRLIASSLVAGEKLNQENTQSVIYTVFTSLYGNCIMQEDESYLLQVLRYLIEFELKESDNPRRLLRRGTCAFSILFKLFSEGLFSAKLFLTATLHEPIMQLLVEDEDHLETDPNKLIERFSPSQQEKLFGEKGSDRFRQKVQEMVESNEAKLVALVNKFIGYLKQNTYCFPHSLRWIVSQMYKTLSCVDRLEVGEVRAMCTDLLLACFICPAVVNPEQYGIISDAPINEVARFNLMQVGRLLQQLAMTGSEEGDPRTKSSLGKFDKSCVAAFLDVVIGGRAVETPPLSSVNLLEGLSRTVVYITYSQLITLVNFMKSVMSGDQLREDRMALDNLLANLPPAKPGKSSSLEMTPYNTPQLSPATTPANKKNRLPIATRSRSRTNMLMDLHMDHEGSSQETIQEVQPEEVLVISLGTGPQLTPGMMSENEVLNMQLSDGGQGDVPVDENKLHGKPDKTLRFSLCSDNLEGISEGPSNRSNSVSSLDLEGESVSELGAGPSGSNGVEALQLLEHEQATTQDNLDDKLRKFEIRDMMGLTDDRDISETVSETWSTDVLGSDFDPNIDEDRLQEIAGAAAENMLGSLLCLPGSGSVLLDPCTGSTISETTSEAWSVEVLPSDSEAPDLKQEERLQELESCSGLGSTSDDTDVREVSSRPSTPGLSVVSGISATSEDIPNKIEDLRSECSSDFGGKDSVTSPDMDEITHGAHQLTSPPSQSESLLAMFDPLSSHEGASAVVRPKVHYARPSHPPPDPPILEGAVGGNEARLPNFGSHVLTPAEMEAFKQRHSYPERLVRSRSSDIVSSVRRPMSDPSWNRRPGNEERELPPAAAIGATSLVAAPHSSSSSPSKDSSRGETEERKDSDDEKSDRNRPWWRKRFVSAMPKAPIPFRKKEKQEKDKDDLGPDRFSTLTDDPSPRLSAQAQVAEDILDKYRNAIKRTSPSDGAMANYESTGDNHDRDLSSKLLYHSDKEVMGDGESAHDSPRDEALQNISADDLPDSASQAAHPQDSAFSYRDAKKKLRLALCSADSVAFPVLTHSTRNGLPDHTDPEDNEIVCFLKVQIAEAINLQDKNLMAQLQETMRCVCRFDNRTCRKLLASIAEDYRKRAPYIAYLTRCRQGLQTTQAHLERLLQRVLRDKEVANRYFTTVCVRLLLESKEKKIREFIQDFQKLTAADDKTAQVEDFLQFLYGAMAQDVIWQNASEEQLQDAQLAIERSVMNRIFKLAFYPNQDGDILRDQVLHEHIQRLSKVVTANHRALQIPEVYLREAPWPSAQSEIRTISAYKTPRDKVQCILRMCSTIMNLLSLANEDSVPGADDFVPVLVFVLIKANPPCLLSTVQYISSFYASCLSGEESYWWMQFTAAVEFIKTIDDRK

Tests used:
[1] = molecular target: T1, GTPase-activating protein and VPS9 domain-containing protein 1 (GAPVD1) (human (endogenous in MDA-MB-231 and SUM159)) (UniProt Q14C86); experiment: co-IP; endogenous proteins in TNBC whole-cell extracts (RIPA with phosphatase and protease inhibitors); primary antibody or normal rabbit IgG overnight at 4 °C, protein A/G agarose beads, Western blot
T1 sequence: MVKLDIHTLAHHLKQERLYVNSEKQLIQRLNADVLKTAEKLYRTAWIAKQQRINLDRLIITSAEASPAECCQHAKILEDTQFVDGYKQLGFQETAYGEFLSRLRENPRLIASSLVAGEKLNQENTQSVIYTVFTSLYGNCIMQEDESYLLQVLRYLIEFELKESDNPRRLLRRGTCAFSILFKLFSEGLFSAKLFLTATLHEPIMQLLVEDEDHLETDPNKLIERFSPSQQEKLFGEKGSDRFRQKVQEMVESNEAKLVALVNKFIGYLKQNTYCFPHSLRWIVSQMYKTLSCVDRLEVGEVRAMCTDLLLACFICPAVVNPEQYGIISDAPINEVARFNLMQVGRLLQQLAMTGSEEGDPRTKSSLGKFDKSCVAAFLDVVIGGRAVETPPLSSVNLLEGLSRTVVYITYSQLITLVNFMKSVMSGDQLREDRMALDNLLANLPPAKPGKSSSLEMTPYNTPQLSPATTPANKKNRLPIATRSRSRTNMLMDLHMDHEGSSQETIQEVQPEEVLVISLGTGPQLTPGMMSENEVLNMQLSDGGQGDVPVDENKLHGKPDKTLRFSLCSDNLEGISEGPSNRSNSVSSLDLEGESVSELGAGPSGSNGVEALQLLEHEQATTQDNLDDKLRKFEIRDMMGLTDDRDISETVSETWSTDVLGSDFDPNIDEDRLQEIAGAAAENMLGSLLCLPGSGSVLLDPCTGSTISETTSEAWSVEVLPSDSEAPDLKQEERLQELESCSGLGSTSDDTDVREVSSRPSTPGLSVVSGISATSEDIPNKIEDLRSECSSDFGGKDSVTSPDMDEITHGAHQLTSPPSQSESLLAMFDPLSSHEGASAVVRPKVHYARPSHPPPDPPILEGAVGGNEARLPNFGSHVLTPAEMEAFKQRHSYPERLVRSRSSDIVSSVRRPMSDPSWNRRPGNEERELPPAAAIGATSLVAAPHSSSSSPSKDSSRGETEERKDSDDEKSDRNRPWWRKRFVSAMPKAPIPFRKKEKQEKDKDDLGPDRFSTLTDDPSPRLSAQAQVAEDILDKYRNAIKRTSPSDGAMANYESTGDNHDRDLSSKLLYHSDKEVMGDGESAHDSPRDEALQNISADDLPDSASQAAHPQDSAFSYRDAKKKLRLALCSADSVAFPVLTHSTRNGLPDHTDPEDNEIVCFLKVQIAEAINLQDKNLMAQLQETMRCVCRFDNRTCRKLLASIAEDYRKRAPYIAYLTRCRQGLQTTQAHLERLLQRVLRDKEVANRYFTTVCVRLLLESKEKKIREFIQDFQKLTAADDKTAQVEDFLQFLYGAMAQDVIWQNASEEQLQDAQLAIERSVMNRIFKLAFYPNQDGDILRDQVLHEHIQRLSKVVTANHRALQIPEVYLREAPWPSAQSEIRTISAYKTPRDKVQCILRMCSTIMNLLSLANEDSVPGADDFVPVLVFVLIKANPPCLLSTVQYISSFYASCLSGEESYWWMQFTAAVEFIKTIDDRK

[2] = molecular target: neuropilin-1 (NRP-1) (human (endogenous in MDA-MB-231 and SUM159)) (UniProt O14786); experiment: as above

Row | Molecule | binding [1] | binding [2]
1 | neuropilin-1 (NRP-1) (from UniProt O14786 22-923) (receptor) | binds | 
2 | B1 |  | binds
